No constants are given. Whether binding was seen depends on the method and setting. Some binding calls cover weakened binding; strength is not graded here.
Legend:
human LGR8 (human) [1] = target: human LGR8 (human) (UniProt Q8WXD0); test: radioligand competition with [125I]-INSL3, human LGR8
human LGR7 (human) [2] = target: T1, human LGR7 (human) (UniProt Q9HBX9); test: radioligand competition, human LGR7
T1 sequence (looked up): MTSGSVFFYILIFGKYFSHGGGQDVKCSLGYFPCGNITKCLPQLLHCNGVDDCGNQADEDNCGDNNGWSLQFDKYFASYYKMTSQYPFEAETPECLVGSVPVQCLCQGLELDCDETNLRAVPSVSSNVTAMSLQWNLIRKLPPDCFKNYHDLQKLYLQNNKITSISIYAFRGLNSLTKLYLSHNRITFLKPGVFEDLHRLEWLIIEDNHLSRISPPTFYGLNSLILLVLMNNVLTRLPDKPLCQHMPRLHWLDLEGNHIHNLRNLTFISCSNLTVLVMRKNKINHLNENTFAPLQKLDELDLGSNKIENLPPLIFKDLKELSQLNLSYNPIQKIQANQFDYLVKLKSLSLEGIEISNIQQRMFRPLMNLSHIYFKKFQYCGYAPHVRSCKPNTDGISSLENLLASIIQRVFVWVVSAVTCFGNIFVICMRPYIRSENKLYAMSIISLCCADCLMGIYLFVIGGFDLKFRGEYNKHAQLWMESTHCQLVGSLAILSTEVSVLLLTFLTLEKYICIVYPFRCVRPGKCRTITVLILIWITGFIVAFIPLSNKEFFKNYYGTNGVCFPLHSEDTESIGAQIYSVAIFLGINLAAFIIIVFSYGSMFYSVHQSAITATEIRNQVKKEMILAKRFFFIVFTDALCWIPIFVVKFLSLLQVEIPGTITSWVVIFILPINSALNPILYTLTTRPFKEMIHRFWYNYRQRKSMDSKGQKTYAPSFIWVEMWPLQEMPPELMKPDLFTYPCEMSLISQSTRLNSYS

By UniProt entry, the sequences of proteins in these tests, tags left out. Where a name states a change or a piece, a line headed by the entry shows the natural chain unless it says otherwise.
UniProt Q8WXD0: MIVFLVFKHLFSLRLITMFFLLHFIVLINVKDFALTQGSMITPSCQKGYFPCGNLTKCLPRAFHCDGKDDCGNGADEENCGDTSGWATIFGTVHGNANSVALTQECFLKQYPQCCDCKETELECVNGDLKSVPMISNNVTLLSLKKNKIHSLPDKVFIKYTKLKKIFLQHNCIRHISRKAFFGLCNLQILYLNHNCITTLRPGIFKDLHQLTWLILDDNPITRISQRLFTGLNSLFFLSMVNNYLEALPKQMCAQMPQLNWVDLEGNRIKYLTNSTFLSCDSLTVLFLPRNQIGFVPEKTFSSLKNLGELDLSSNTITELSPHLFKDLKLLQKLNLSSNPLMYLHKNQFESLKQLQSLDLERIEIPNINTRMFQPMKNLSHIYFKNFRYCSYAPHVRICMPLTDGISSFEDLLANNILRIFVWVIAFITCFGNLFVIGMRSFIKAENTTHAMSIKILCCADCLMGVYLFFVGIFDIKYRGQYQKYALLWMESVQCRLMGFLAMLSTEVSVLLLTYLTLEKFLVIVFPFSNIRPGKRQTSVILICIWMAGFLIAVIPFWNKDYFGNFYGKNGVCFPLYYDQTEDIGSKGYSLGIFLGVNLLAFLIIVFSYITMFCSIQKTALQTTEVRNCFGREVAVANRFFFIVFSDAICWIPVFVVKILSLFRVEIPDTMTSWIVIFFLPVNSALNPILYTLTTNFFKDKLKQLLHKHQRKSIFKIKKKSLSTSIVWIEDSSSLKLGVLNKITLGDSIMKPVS
UniProt P04808: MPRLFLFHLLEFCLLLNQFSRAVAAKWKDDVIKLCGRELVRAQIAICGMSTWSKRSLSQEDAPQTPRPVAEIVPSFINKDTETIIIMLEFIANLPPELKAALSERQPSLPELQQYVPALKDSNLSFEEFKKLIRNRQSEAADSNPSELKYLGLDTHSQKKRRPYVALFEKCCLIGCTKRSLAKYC

human LGR8 (human) [3] = target: human LGR8 (human) (UniProt Q8WXD0); test: discussion of radioligand binding and functional assays
human LGR7 (human) [4] = target: T1, human LGR7 (human); test: as above

Measured: binding

Relaxin-3/Relaxin-1 (R3/R1) chimeric polypeptide (from UniProt P04808 162-185) (ligand)
binds: all assays above
